According to PubChem BioAssay AID624297 (National Center for Advancing Translational Sciences (NCATS), 2012):
Screen size: about 340,000 compounds; about 6,200 (1.8%) were called active. The inconclusive results got no clear call from the source; some entries with a clear call stand among them for comparison. The call rests on the fitted dose curve; in most records, active means well fitted activation curve with a large enough effect; inconclusive means small, poorly fitted or top-dose-only effect; inactive means no such curve, though single readings can be large or run the other way. Potencies beside an inconclusive call are fits to weak or partial responses and may not hold up.

Experiment: A quantitative high throughput screen for small molecules that induce DNA re-replication in SW480 colon adenocarcinoma cells. Further: nearly all actives have a fitted effect of over 55% in size. On re-replication activation: % of control where 0% means no effect.
Settings: Hoechst DNA content imaging, 48 h; re-replication activation: at 46.1 µM (top of the series) unless noted
Method in brief: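 Hoechst fluorescence of nuclei (405 nm excitation, 500-530 nm emission) measured by plate-scanning imager after 48 hr compound exposure at 37 C; re-replication scored as increased number of nuclei with elevated intensity.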
Potency means the concentration at half of the fitted maximal effect.

| Compound | Potency | re-replication activation |
| --- | --- | --- |
| COc1ccccc1C(=O)/C=C/c1ccc(N2CCCCC2)c([N+](=O)[O-])c1 | active: 18.4 µM | – |
| O=C(CN1CCN(c2ccc(Cl)cc2)CC1)Nc1ccc(F)c(F)c1 | – | inactive: -0.837% |
| COc1ccc(-c2nc(S(=O)(=O)c3ccccc3)c(NCCCN3CCOCC3)o2)cc1 | – | inactive: -0.507% |
| Cc1cccc(N2CCN(C(=O)c3ccc(CNc4c(N5CCC(C)CC5)c(=O)c4=O)cc3)CC2C)c1 (centres undefined) | inconclusive: 18.4 µM [activator, single point] | – |
| Cc1ccc2nc(SCC(=O)N(C)C3CCS(=O)(=O)C3)[nH]c2c1 (centres undefined) | – | inactive: -12.2% |
| CCOC(=O)C1(CCCc2ccccc2)CCN(CC(O)CO)CC1 (centres undefined) | inconclusive: 0.326 µM [activator, full curve, poor fit] | – |
| Nc1ccccc1-c1n[nH]c(=S)s1 | inconclusive: 14.6 µM [activator, partial curve, poor fit] | – |
| Cc1c(Cl)c([N+](=O)[O-])nn1CC(=O)NC(C)c1ccccc1 (centres undefined) | – | inactive: -4.61% |
| CCN(CCCNC(=O)c1[nH]c(C)c(C(C)=O)c1C)c1cccc(C)c1 | inconclusive: 32.6 µM [activator, partial curve, poor fit] | – |
| Cc1ccc(-c2nnc(N3CCCCC3)c3ccccc23)cc1S(=O)(=O)N(C)C | inconclusive: 29.1 µM [activator, single point] | – |
| Cc1cccc(NC2=C(NC(=O)c3ccccc3)C(=O)c3ccccc3C2=O)c1 | active: 18.4 µM | – |
| O=C(C1=C(O)C(=O)N(Cc2cccnc2)C1c1ccccn1)c1cccs1 (centres undefined) | inconclusive: 16.4 µM [activator, partial curve, poor fit] | – |
| O=C(C[N+]1(CC#Cc2ccccc2)CCCCC1)c1ccc(Cl)cc1 | – | inactive: -0.999% |
| CC(C)(C)OC(=O)NCCCCC1=CC2=CC(=O)C(C)(O)C(=O)C2=CO1 (centres undefined) | – | inactive: 2.6% |
| COc1ccc(-c2cc(C(=O)N/N=C/c3ccc4c(c3)OCO4)c3ccccc3n2)c(OC)c1 | inconclusive: 35.5 µM [activator, single point] | – |
| Cc1ccc2[nH]c(=O)c(C(c3nnnn3Cc3ccccc3)N3CCc4ccccc43)cc2c1 (centres undefined) | inconclusive: 11.6 µM [activator, partial curve] | – |
| Cc1ccc(Oc2ncccc2C(=O)NC2CCSC2=O)cc1 (centres undefined) | inconclusive: 18.4 µM [activator, single point] | – |
| Cc1cc(C)nc(N2CCC(C(=O)N3CCN(c4cc(Cl)ccc4C)CC3)CC2)n1 | inconclusive: 23.1 µM [activator, single point] | – |
| CCOC(=O)c1oc2ccc(S(=O)(=O)n3nc(-c4ccccc4)cc3N)cc2c1C | – | inactive: 4.43% |
| Cc1cc(C)c(C#N)c(SCC(=O)Nc2cccc(S(=O)(=O)N3CCCC3)c2)n1 | inconclusive: 25.9 µM [activator, single point] | – |
| CCOC(=O)c1c(C)[nH]c(-c2csc(N)n2)c1C | inconclusive: 4.61 µM [activator, partial curve, poor fit] | – |
| Cn1cc(/C=C(\NC(=O)c2ccccc2)C(=O)NCCCN2CCOCC2)c2ccccc21 | – | inactive: 0.215% |
| COC(=O)CCC(=O)OC1(C)C(=O)C=C2C=C(C3CC3)N(CCN3CCOCC3)C=C2C1=O (centres undefined) | inconclusive: 0.164 µM [activator, full curve, poor fit] | – |

Two entries from above, tab-delimited.
Compound	Potency	re-replication activation
O=C(C1=C(O)C(=O)N(Cc2cccnc2)C1c1ccccn1)c1cccs1 (centres undefined)	inconclusive: 16.4 µM [activator, partial curve, poor fit]	–
O=C(C[N+]1(CC#Cc2ccccc2)CCCCC1)c1ccc(Cl)cc1	–	inactive: -0.999%

(next part)

| Compound | Potency | re-replication activation |
| --- | --- | --- |
| Cc1ccc(-c2[nH]ncc2/C=C(\C#N)C(=O)NC2CCCCC2)cc1 | – | inactive: -1.78% |
| Cc1cc(C)c(S(N)(=O)=O)c(C)c1-n1cnnn1 | – | inactive: -0.755% |
| COC(=O)CC1(C(=O)OC)Oc2ccc(Br)cc2C(=O)N1c1cc(Cl)c(Cl)cc1Cl (centres undefined) | inconclusive: 18.4 µM [activator, single point] | – |
| COc1ccccc1NC(=O)NNC(=O)c1ccc2c(c1)NC(=O)C(C)(C)O2 | inconclusive: 29.1 µM [activator, single point] | – |
| Cc1ccc(C(=O)c2cc([N+](=O)[O-])ccc2N2CCN(C)CC2)cc1 | active: 10.3 µM | – |
| CCN(CC)S(=O)(=O)c1ccc(OCC(=O)NC(=O)Cc2ccccc2)c([N+](=O)[O-])c1 | – | inactive: -0.651% |
| Cn1c(=O)c2c(nc(N3CCN(c4ccccn4)CC3)n2Cc2ccc(Cl)cc2Cl)n(C)c1=O | – | inactive: -5.87% |
| Cc1ccc(C)c(NC(=O)CCc2ccc(S(=O)(=O)NC3CCCCC3)cc2)c1 | inconclusive: 29.1 µM [activator, single point] | – |
| COc1ccc(C(=O)Nc2ccc3[nH]ccc3c2)cc1 | inconclusive: 25.9 µM [activator, single point] | – |
| CS(=O)(=O)N(CC(=O)NCc1ccc2c(c1)OCO2)c1cccc(Cl)c1 | – | inactive: -11.4% |
| COc1ccc(CC(=O)Nc2nc(-c3ccc(F)c(F)c3)cs2)cc1 | inconclusive: 29.1 µM [activator, single point] | – |
| CC(C)=CCCC1(C)C=Cc2c(c(C)cc3c2[nH]c2cc(O)ccc23)O1 (centres undefined) | inconclusive: 5.8 µM [activator, partial curve, poor fit] | – |
| CCc1cc(=O)[nH]c(-n2[nH]c(-c3ccccc3)cc2=O)n1 | – | inactive: -87.3% |
| CC1CN(CC(O)COc2ccc(C#N)cc2)CCN1CC(O)COc1ccc(C#N)cc1 (centres undefined) | – | inactive: -1.27% |
| COc1ccc(C(=O)Nc2c(N)nc(SCC(=O)Nc3ccc(NC(C)=O)cc3)[nH]c2=O)cc1 | inconclusive: 25.9 µM [activator, partial curve, poor fit] | – |
| COc1ccc(/C=N/NC(=O)CCn2cnc3ccccc32)cc1 | inconclusive: 18.4 µM [activator, single point] | – |
| CC(C)Oc1ccc(-c2nc(NCC3CCCO3)c3ccccc3n2)cc1 (centres undefined) | inconclusive: 29.1 µM [activator, single point] | – |
| C/C(=N\NC(=O)c1ccc(Cn2cc(Br)cn2)o1)c1ccc(NC(=O)c2ccoc2C)cc1 | inconclusive: 16.4 µM [activator, single point] | – |
| O=C(NNc1cc(Cl)cc(Cl)c1)C1CCC1 | inconclusive: 14.6 µM [activator, single point] | – |
| Cc1cccc(N=C2NC(=O)/C(=C/c3cn(C)c4ccccc34)S2)c1 | inconclusive: 20.6 µM [activator, single point] | – |
| CC(=O)n1c(C=Nc2ccc(Cl)cc2)c(O)c2ccccc21 | inconclusive: 5.17 µM [activator, partial curve, poor fit] | – |
| COc1ccc(CNC(=S)Nc2ccccc2)cc1 | inconclusive: 4.61 µM [activator, single point] | – |

| Compound | Potency | re-replication activation |
| --- | --- | --- |
| COc1cccc(C(c2c(C)[nH]n(-c3ccccc3)c2=O)c2c(C)[nH]n(-c3ccccc3)c2=O)c1OC | – | inactive: 1.08% |
| COc1ccc(Cl)cc1NC(=O)c1cccc(-n2cnnn2)c1 | – | inactive: 8.77% |
| O=C(N/N=C/c1cc(Br)ccc1OC(=O)c1ccc(Br)cc1)c1ccncc1 | inconclusive: 0.58 µM [activator, full curve] | – |
| CCCc1nc2ccccc2c(=O)n1-c1ccc(C(=O)OCC)cc1 | – | inactive: -7.06% |
| CC1(C)CC(=O)C2=C(C1)Oc1ncn(CCCO)c(=N)c1C2c1ccccc1 (centres undefined) | – | inactive: -0.919% |
| Cc1ccccc1OCCOc1ccc([N+](=O)[O-])cc1/C=N/n1cnnc1 | inconclusive: 4.11 µM [activator, single point] | – |
| Cc1ccc(C)c(OCC(=O)NCC(C)(C)N2CCOCC2)c1 | inconclusive: 6.51 µM [activator, partial curve, poor fit] | – |
| NC(=O)c1cc(-c2ccccc2)sc1NC(=O)Cc1ccc(S(=O)(=O)N2CCOCC2)s1 | inconclusive: 32.6 µM [activator, partial curve, poor fit] | – |
| Cc1csc(NC(=O)c2ccc(OCC3CCCO3)cc2)n1 (centres undefined) | – | inactive: -3.93% |
| COc1ccc(-c2csc(Nc3cccc(C)n3)n2)cc1C | – | inactive: 4.64% |
| COC(=O)c1ccc(COc2ccccc2/C=C(\C#N)C(=O)Nc2ccccc2C)cc1 | – | inactive: -6.96% |
| COc1ccc(/C=C(/C#N)C(=O)NC2CCCCC2)cc1Br | inconclusive: 25.9 µM [activator, partial curve, poor fit] | – |
| CS(=O)(=O)c1ccc(C(=O)Nc2ccc(N3CCOCC3)cc2)c(Cl)c1 | inconclusive: 1.3 µM [activator, full curve, poor fit] | – |
| O=C(/C=C/Nc1ccc(Oc2ccccc2Cl)cc1)c1ccco1 | inconclusive: 23.1 µM [activator, single point] | – |
| CC1CCCCC1NC(=O)CSc1nc2ccccc2c(=O)n1Cc1ccco1 (centres undefined) | inconclusive: 18.4 µM [activator, single point] | – |
| COC(=O)c1ccccc1NC(=O)COC(=O)c1ccc(C)c(NC(=O)c2ccco2)c1 | inconclusive: 16.4 µM [activator, partial curve, poor fit] | – |
| CCNC(=O)NC(=O)C(C)OC(=O)c1oc2ccccc2c1CSC1CCCCC1 (centres undefined) | – | inactive: -3.22% |
| Cc1cccc(N2C(=O)c3cccc4c(N)ccc(c34)C2=O)c1 | active: 8.2 µM | – |
| Cc1ccc(NC(=O)c2sc3ncnc(N4CCN(c5ccccn5)CC4)c3c2C)c(C)c1 | inconclusive: 18.4 µM [activator, partial curve, poor fit] | – |
| CCCCN(CCCC)C(=O)c1sc2nc(N3CCOCC3)c3c(c2c1N)CCCC3 | inconclusive: 23.1 µM [activator, single point] | – |
| COc1ccc2c(c1)C(=O)CC(c1ccc3c(c1)OCCO3)O2 (centres undefined) | – | inactive: 0.226% |
| COc1ccccc1NC(=O)N1CCN(c2ccccn2)CC1 | – | inactive: -11.2% |
| O=C(CSc1ncnc2nc[nH]c12)N1CCOCC1 | active: 18.4 µM | – |

A different layout for 15 compounds above:
Compound,Potency,re-replication activation
COc1cccc(C(c2c(C)[nH]n(-c3ccccc3)c2=O)c2c(C)[nH]n(-c3ccccc3)c2=O)c1OC,–,inactive: 1.08%
O=C(N/N=C/c1cc(Br)ccc1OC(=O)c1ccc(Br)cc1)c1ccncc1,"inconclusive: 0.58 µM [activator, full curve]",–
CCCc1nc2ccccc2c(=O)n1-c1ccc(C(=O)OCC)cc1,–,inactive: -7.06%
Cc1ccc(C)c(OCC(=O)NCC(C)(C)N2CCOCC2)c1,"inconclusive: 6.51 µM [activator, partial curve, poor fit]",–
Cc1csc(NC(=O)c2ccc(OCC3CCCO3)cc2)n1 (centres undefined),–,inactive: -3.93%
COc1ccc(/C=C(/C#N)C(=O)NC2CCCCC2)cc1Br,"inconclusive: 25.9 µM [activator, partial curve, poor fit]",–
CS(=O)(=O)c1ccc(C(=O)Nc2ccc(N3CCOCC3)cc2)c(Cl)c1,"inconclusive: 1.3 µM [activator, full curve, poor fit]",–
O=C(/C=C/Nc1ccc(Oc2ccccc2Cl)cc1)c1ccco1,"inconclusive: 23.1 µM [activator, single point]",–
CC1CCCCC1NC(=O)CSc1nc2ccccc2c(=O)n1Cc1ccco1 (centres undefined),"inconclusive: 18.4 µM [activator, single point]",–
CCNC(=O)NC(=O)C(C)OC(=O)c1oc2ccccc2c1CSC1CCCCC1 (centres undefined),–,inactive: -3.22%
Cc1cccc(N2C(=O)c3cccc4c(N)ccc(c34)C2=O)c1,active: 8.2 µM,–
Cc1ccc(NC(=O)c2sc3ncnc(N4CCN(c5ccccn5)CC4)c3c2C)c(C)c1,"inconclusive: 18.4 µM [activator, partial curve, poor fit]",–
CCCCN(CCCC)C(=O)c1sc2nc(N3CCOCC3)c3c(c2c1N)CCCC3,"inconclusive: 23.1 µM [activator, single point]",–
COc1ccc2c(c1)C(=O)CC(c1ccc3c(c1)OCCO3)O2 (centres undefined),–,inactive: 0.226%
O=C(CSc1ncnc2nc[nH]c12)N1CCOCC1,active: 18.4 µM,–
